Assay results

From PubChem BioAssay record AID1159506 (NCATS, 2015).

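Genome-wide siRNA knockdown in TC32 Ewing sarcoma cells, comparing luciferase light from an NR0B1-promoter reporter with a CMV-promoter reporter 48 hours after transfection.
Each siRNA was applied at 20 nM.
A z-score of the log NR0B1-over-CMV signal, less the median of siRNAs with the same seed; more negative means a stronger specific loss of the NR0B1 reporter.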

The strongest results of the screen are mostly left out here.
Sequences are the guide (antisense) strand, without overhang.

Sequence | target gene | seed-corrected z-score
UAUAGAUCUGAUGCUUUCG | CNTNAP5 | 0.1798
UGCAGAAGAGGCUACUUUC | B9D2 | 1.413
UGAUGUACAAACGAGCAAG | DCP2 | -0.4332
UAUAUGAAGCAGGUUCUGC | GLMP | -0.01171
UUUAGGUCACUUGUUUCUG | CCDC157 | -1.092
UGGUAGAUCAUGACCAAGC | SLC36A1 | 0.3433
UAUCCGACCAGCUUGUCCU | CHAC2 | -0.9808
UGAUGUAGCAACAGGGUUG | PNOC | 0.008323
UUACUGGCCUUGCCAGUGC | LOC653712 | 0.3764
UUUUGACGAAGGAUCUCCC | TRPV5 | 0.8475
UCCUGUAACACCUUAACGG | ILF3 | 0.1214
UCCGUUCACAACAUUGAGG | ZNF750 | -0.5209
UCUGCAAUAGAUUUCGUAC | NCKAP5 | 0.228
UCUCUCAAAAUUGCGAGCC | ACOT13 | 0.2789
AUUGCUAUUCUGAACAAUC | BPTF | -0.5498
AACACGAAAAGGAAGAUCC | SMCHD1 | 0.8812
UAGCUGGUCUGAAAGCUGG | TRABD2B | -0.4732
UUGGGUCAUGCUGUUGAGG | LOC645645 | -0.5983
UGACCUUUCAGACAAGCCC | TANC1 | -0.38
AACUUAAUUAUUCCUCUGC | LOC401589 | -0.9502
UAUUGGGUUUCCUUGAGCC | AFF4 | 0.5225
UUCUGGAUUCCCAUCAAUG | HSPB11 | -0.6791
AAGUUGUACAGAUCACUGG | IRF1 | -0.2961
UUCUUUACCAUUAAGUUCG | CD2AP | 0.6399
AUGGUGAAGAGCGUGCUGC | SLC5A2 | -0.7093
UCGAUUUAUAACAUCAUUC | ACAP2 | -0.678
UUUCUAGCUCUUUACCUUC | CALB2 | -1.401
UCCCAACUCGGUAAAGACC | FBXL8 | -0.3375
UAAUUCGUCAGCUGCUUGC | TNFAIP2 | 0.09299
UACGUUUCAAUCAAAUCAG | SCN9A | 0.5229
AUAGACAUCAGUCACCUCG | CCDC28B | -0.6594
UUCUUGAUCCCUUCAGAGC | TAS2R42 | -0.1517
UCGUCUUCCUAUAAAAUCC | TNFRSF19 | -1.004
UAAGUGAAGUCGAUGAAGU | ATG101 | 0.6674
UCUCUGAUAUGUAAUCAUC | ZNF630 | -0.5512
AUCGUGAUCACAGCAACCG | LOC400965 | 0.4007
UAUUGAUCUUGCGCAAGCC | ATRNL1 | 0.1408
UGUCUGCACAUUCCUAGCC | EXO1 | 0.4262
AACAGCAUAUGUUAUUUGC | WFDC10A | 0.02697
AAUGUUGUCGCGCAGAACU | HIST1H4L | 0.4775
UGAGGUGACACUACUUCUC | FAM214B | -0.796
AUGCUUAUUGGACAAGACC | BRWD1 | -0.2773
UUAUCCUCUGAAAAGGUCG | OR4S2 | 0.8147
UCUCUCGUAAGUGAUGUGC | ADNP | 1.329
UAUCCUGUAAUACCCGUGU | SH2D1B | 0.9157
UCCUAUGUAAAGAUAAUCG | NAMPT | -0.03755
AUCACGUAAAUUAUUCUUC | RPL22P3 | -0.816
UUCGAUAUAAUACAGUGGG | BMS1 | 0.2792
UUGGCGUCCAGGUUCUUCA | CCL24 | -0.1373
UUAAAGACUCGUUUCUCUG | ST6GALNAC5 | -0.8863
UAGAGGAUAAUAGGAAUGC | SLC35F3 | 0.7694
UGCGUAACAGGAUUCCAGG | TMEM102 | -0.4374
ACUUUGAUGACCACGUUCU | ZC3H3 | -0.04544
AAUAUCAAAAUGGUACUUC | LOC654342 | 0.8634
UCACAAGGUACCGAUAGGC | C7orf55 | -0.6842
AAAGUAUGUGGGCUCCUCC | DAGLA | 3.097
UCUCAUAUCUCACAAAUCC | PABPC5 | 0.01267
AACAGGUCCAGAAUUGUUC | KDM4E | -1.377
UGUUUGUAAAGUUUAGAUG | CASR | 0.1186
AAACUAUGCGGGUAUAUGC | SPAM1 | 0.4091
AACUCCAAUAUUCAAUUGC | MED17 | 0.392
UAAGUUCCACUGUAUCUGG | DPY19L4 | -0.2746
UGUUAGAUUGAAACAACCC | HDAC2 | 1.457
UCUUUAACCUUUGUCGUCC | LOC728290 | 0.6913
AAGGAUCUGACUGCUAUCC | SMU1 | -1.225
AACAGGACCAACGAGAUUC | GLMN | -0.3615
UAUUUUGCUCGGGUAUUUC | SYCP2L | -0.3091
UUUCGGAAAGUGUUUUUCU | TM7SF2 | 0.3684
UAAUCAACAGUGCAUGAGG | IL6ST | 0.3491
UCCUUGUCCGCUGUAGUCC | WDR1 | -0.2089
AAAGGUUUGCUAGAGAAGG | PRNT | 0.5861
UCCUUGAUCACUUUAUCCU | CCDC84 | 0.4043
UACUGUCUAAUAAUUCCAC | C11orf73 | 0.06196
UAGAGAAACAAGGCGGUCU | TMEM130 | -1.726
UGCACGUCUAGGUUGAGUC | INHBB | -0.2445
AAUGAUACAAUGUCACCAC | IMMP2L | -1.361
UCCAUGACAACAGAAGAUC | PPP1CB | -1.51
UUCUGUAUCAUAACGGAAG | GABRA2 | -0.2088
UGUGAGUUCAGGGUCCAGG | LILRA4 | -0.1066
UCAAUUUCAAUGGAGAAUU | PITPNM1 | 0.05664

Some entries from above, unchanged:

With UUCGAUAUAAUACAGUGGG against BMS1 the assay gave seed-corrected z-score 0.2792.
With UCCAUGACAACAGAAGAUC against PPP1CB the assay gave seed-corrected z-score -1.51.
With UUGGCGUCCAGGUUCUUCA against CCL24 the assay gave seed-corrected z-score -0.1373.
With UCUCAUAUCUCACAAAUCC against PABPC5 the assay gave seed-corrected z-score 0.01267.
With UAUCCGACCAGCUUGUCCU against CHAC2 the assay gave seed-corrected z-score -0.9808.
With UCUUUAACCUUUGUCGUCC against LOC728290 the assay gave seed-corrected z-score 0.6913.
With UCGUCUUCCUAUAAAAUCC against TNFRSF19 the assay gave seed-corrected z-score -1.004.